# According to PubChem BioAssay AID330 (DTP/NCI, 2004):
# The list does not hold the whole screen: it is rich in T/C values a quarter to a half above the control, in often repeated tests (any T/C) and in doses without a T/C. Further doses and runs are listed elsewhere. T/C: endpoint of the treated group in % of that of the vehicle group. Some entries give survivors of the animals treated and no T/C: the source files T/C as zero there, which appears to mark a toxic dose or a test without result, not a measured value. Some doses without a T/C left all or most animals alive at the check, yet need not have been tolerated: the source hardly ever lists a survival T/C far under the control, and the zero likely stands for such cases as well. Survivors were counted at the toxicity check, usually on the fifth day, unless a day is given; later deaths do not show. Schedule codes are those of the source, read here as Q, the interval in days (D) or hours (H), X, the number of doses. Where survival is the endpoint, the PubChem record calls one and a half times the control and up active, and a quarter to a half above the control has no call in these data; cut-offs in other NCI protocols can differ. Some entries hold several experiments; their values stand side by side, smallest first. Signs of the kind (2×) stand for listed records that agree.
# Tested on: P388 leukemia ip, CD2F1 mice, survival T/C
# Assay: NCI In Vivo Anticancer Drug Screen. Data for tumor model P388 Leukemia (intraperitoneal) in CD2F1 (CDF1) mice
# Settings: T/C endpoint: median survival time, higher T/C = longer survival
# [1] = dose: 6.0 mg/kg/injection, schedule: Q01DX005 (ip), vehicle: saline with Tween-80
# [2] = dose: 8.0 mg/kg/injection, schedule: Q04DX003 (ip), vehicle: other
smiles,measurement,setting,value
CC[C@@]1(O)C(=O)OCc2c1cc1n(c2=O)Cc2cc3ccccc3nc2-1,T/C,"dose: 0.39 mg/kg/injection, schedule: Q04DX003 (ip), vehicle: other",128 % of control
same,T/C,"dose: 0.5 mg/kg/injection, schedule: Q04DX003 (ip), vehicle: other",129 % of control
same,T/C,"dose: 0.75 mg/kg/injection, schedule: Q01DX005 (ip), vehicle: saline with Tween-80",137 (2×) and 141 % of control
same,T/C,"dose: 1.0 mg/kg/injection, schedule: Q04DX003 (ip), vehicle: other, evaluated on day 35",126 % of control
same,T/C,"dose: 1.0 mg/kg/injection, schedule: Q04DX003 (ip), vehicle: other, evaluated on day 40",138 % of control
same,T/C,"dose: 2.0 mg/kg/injection, schedule: Q04DX003 (ip), vehicle: other",127 % of control
same,survivor count,"dose: 2.5 mg/kg/injection, schedule: Q04DX003 (ip), vehicle: saline with Tween-80",6 of 6
same,survivor count,"dose: 3.75 mg/kg/injection, schedule: Q04DX003 (ip), vehicle: saline with Tween-80",4 of 6
same,survivor count,"dose: 5.0 mg/kg/injection, schedule: Q04DX003 (ip), vehicle: saline with Tween-80",6 of 6
same,T/C,[1],"88, 199, 213 % of control"
same,survivor count,[1],6 of 6
same,survivor count,"dose: 6.25 mg/kg/injection, schedule: Q04DX003 (ip), vehicle: other",5 of 6
same,T/C,"dose: 6.7 mg/kg/injection, schedule: Q04DX002 (ip), vehicle: saline with Tween-80, evaluated on day 45","169, 180, 195, 203, 220 % of control"
same,T/C,"dose: 6.7 mg/kg/injection, schedule: Q04DX002 (ip), vehicle: saline with Tween-80, evaluated on day 47",192 and 227 % of control
same,T/C,[2],128 % of control
same,survivor count,[2],6 of 6
same,survivor count,"dose: 10.0 mg/kg/injection, schedule: Q01DX005 (ip), vehicle: saline with Tween-80",6 of 6
same,T/C,"dose: 10.0 mg/kg/injection, schedule: Q04DX002 (ip), vehicle: saline with Tween-80, evaluated on day 45","86, 180, 187, 205, 215 % of control"
same,T/C,"dose: 10.0 mg/kg/injection, schedule: Q04DX002 (ip), vehicle: saline with Tween-80, evaluated on day 47","217, 241, 247 % of control"
same,survivor count,"dose: 10.0 mg/kg/injection, schedule: Q04DX003 (ip), vehicle: saline with Tween-80",6 of 6
same,survivor count,"dose: 12.0 mg/kg/injection, schedule: Q01DX005 (ip), vehicle: saline with Tween-80",10 of 10
same,survivor count,"dose: 12.5 mg/kg/injection, schedule: Q04DX003 (ip), vehicle: other",5 of 6
same,T/C,"dose: 15.0 mg/kg/injection, schedule: Q04DX002 (ip), vehicle: saline with Tween-80, evaluated on day 45","203, 214, 235, 424 % of control"
same,T/C,"dose: 15.0 mg/kg/injection, schedule: Q04DX002 (ip), vehicle: saline with Tween-80, evaluated on day 47","219, 277, 371 % of control"
same,survivor count,"dose: 15.0 mg/kg/injection, schedule: Q04DX002 (ip), vehicle: saline with Tween-80",10 of 10
same,survivor count,"dose: 16.67 mg/kg/injection, schedule: Q01DX005 (ip), vehicle: saline with Tween-80",5 of 6
same,survivor count,"dose: 22.5 mg/kg/injection, schedule: Q04DX002 (ip), vehicle: saline with Tween-80",9 of 10
S=P(N1CCCCCC1)(N1CC1)N1CC1,T/C,"dose: 12.5 mg/kg/injection, schedule: Q01DX009 (ip), vehicle: saline",127 % of control
same,T/C,"dose: 25.0 mg/kg/injection, schedule: Q04DX003 (ip), vehicle: saline with Tween-80",127 % of control
same,survivor count,"dose: 75.0 mg/kg/injection, schedule: Q04DX003 (ip), vehicle: saline sonified",6 of 6
same,survivor count,"dose: 100.0 mg/kg/injection, schedule: Q04DX003 (ip), vehicle: saline with Tween-80",3 of 6
same,survivor count,"dose: 200.0 mg/kg/injection, schedule: Q04DX003 (ip), vehicle: saline with Tween-80",5 of 6
same,survivor count,"dose: 400.0 mg/kg/injection, schedule: Q04DX003 (ip), vehicle: saline with Tween-80",0 of 6
O=C1c2ccccc2C(=O)N1OCc1ccc(-c2ccccc2)cc1,survivor count,"dose: 200.0 mg/kg/injection, schedule: Q01DX005 (ip), vehicle: Klucel (hydroxypropylcellulose) (HPC)",5 of 6
